In patent publication US9067960B2, “Hybrid SCFA-hydroxyl-derivatized monosaccharides, methods of synthesis, and methods of treating disorders” (The Johns Hopkins University, priority 2007, dated 2015):
At least one compound was matched to its structure with a doubt left.

Tested on: Jurkat cells
Assay: Surface expression of Sia5Lev: ketone-bearing sialosides by biotin hydrazide, FITC-avidin, flow cytometry
Format: cell-based, human

## CCCC(=O)OCC1OC(OC(=O)CCC)C(NC(=O)CCC(C)=O)[C@@H](OC(=O)CCC)[C@@H]1OC(=O)CCC (stereo partly drawn) [compound 12, 1,3,4,6-tetra-O-butanoyl-2-deoxy-2-(4-oxopentanoyl)-amino-α,β-D-mannopyranose]
  Surface detection of ketone-bearing sialosides (cell surface ketone labeling): more effective than the peracetylated analog 11
